The text below walks through data of patent US20130261032A1, “ADDITIVE FOR SUBTERRANEAN TREATMENT” (SCHLUMBERGER TECHNOLOGY CORPORATION, priority 2012, published 2013).

The nature of this data set: clay suspension capability, clarity after centrifuging. Conditions: 1 and 5 wt % bentonite, 10 minutes at 3000 rpm.

`[Cl-].[K+]` [KCl, potassium chloride]: the “clay suspension after centrifuging” value is given as “the clay settled rapidly”.

For the compound `C[N+](C)(C)C.[Cl-]` [TMAC, tetra methyl ammonium chloride], the “clay suspension after centrifuging” value is listed as “the clay settled rapidly”.
